Reference: US12139742B2, “Devices, systems, and methods for preparing a standardized inoculum for antimicrobial susceptibility testing” (Avails Medical, Inc., priority 2020, dated 2024)

Experiments:
[1] = test system: 23 different positive blood culture (PBC) samples comprising seven different species of bacteria; experiment: Kirby-Bauer disk diffusion AST of 0.5 McFarland inocula (present method vs traditional subculture); format: cell-based; conditions: categorical agreement
Source text: The standardized inoculum 1726 (e.g., the 0.5 McFarland inoculum) can then be used directly for antimicrobial susceptibility testing using manual disk diffusion or diluted further for automated AST platforms. For example, the standardized inoculum 1726 prepared using the method 1700 and system 1702 disclosed herein can be subjected to manual Kirby-Bauer disk diffusion AST or an automated AST platform such as the VITEK®2 platform.
(§1) Both the present method 1700 and traditional microbial subculturing techniques were used to prepare standardized 0.5 McFarland inocula for AST using Kirby-Bauer disk diffusion (see Table 1) and the automated VITEK2 GN81 AST platform (see Table 2).
Two sets of standardized 0.5 McFarland inocula were prepared from 23 different positive blood culture (PBC) samples comprising seven different species of bacteria. The 23 PBC samples included six samples of Escherichia coli (ECo), two samples of Enterobacter cloacae (ECl), three samples of Klebsiella pneumoniae (KPn), four samples of Klebsiella oxytoca (KOx), two samples of Citrobacter freundii (CFr), four samples of Serratia marcescens (SMa), and two samples of Klebsiella aerogenes (KAe). […]
In total, 296 minimum inhibitory concentrations (MICs) from the VITEK®2 GN81 platform and 224 zone sizes on disk diffusion were evaluated.

[2] = test system: 23 different positive blood culture (PBC) samples comprising seven different species of bacteria; experiment: VITEK 2 GN81 automated AST of 0.5 McFarland inocula (present method vs traditional subculture); format: cell-based; conditions: for % CA: categorical agreement; for % EA: essential agreement
Description: as §1
Two sets of standardized 0.5 McFarland inocula were prepared from 23 different positive blood culture (PBC) samples comprising seven different species of bacteria. The 23 PBC samples included six samples of Escherichia coli (ECo), two samples of Enterobacter cloacae (ECl), three samples of Klebsiella pneumoniae (KPn), four samples of Klebsiella oxytoca (KOx), two samples of Citrobacter freundii (CFr), four samples of Serratia marcescens (SMa), and two samples of Klebsiella aerogenes (KAe).
The first set was prepared using the presently disclosed method 1700 (sample preparation time: between 60 minutes and 180 minutes) and the second set was prepared using traditional microbial subculturing techniques (sample preparation time: between 18 hours to 24 hours). The testing was conducted using the automated VITEK®2 GN81 AST platform (see Table 1) and manual Kirby-Bauer disk diffusion (see Table 2).

Structure (SMILES)	% CA [1] [%]	% CA [2] [%]	% EA [2] [%]
CO/N=C(\C(=O)N[C@@H]1C(=O)N2C(C(=O)O)=C(CSc3nc(=O)c(=O)[nH]n3C)CS[C@H]12)c1csc(N)n1 [Ceftriaxone]	95.7	95.7	91.3
CC1(C)S[C@@H]2[C@H](NC(=O)[C@H](N)c3ccccc3)C(=O)N2[C@H]1C(=O)O [Ampicillin]	100	100	100
